# No constants are given. Whether binding was seen depends on the method and setting. In cells and extracts the contact can be indirect. These calls come from enrichment with a bait or labelling near it, and not all partners need be listed.
# B1: p120 catenin (protein, UniProt O60716 1-968)
# chain: MDDSEVESTASILASVKEQEAQFEKLTRALEEERRHVSAQLERVRVSPQDANPLMANGTLTRRHQNGRFVGDADLERQKFSDLKLNGPQDHSHLLYSTIPRMQEPGQIVETYTEEDPEGAMSVVSVETSDDGTTRRTETTVKKVVKTVTTRTVQPVAMGPDGLPVDASSVSNNYIQTLGRDFRKNGNGGPGPYVGQAGTATLPRNFHYPPDGYSRHYEDGYPGGSDNYGSLSRVTRIEERYRPSMEGYRAPSRQDVYGPQPQVRVGGSSVDLHRFHPEPYGLEDDQRSMGYDDLDYGMMSDYGTARRTGTPSDPRRRLRSYEDMIGEEVPSDQYYWAPLAQHERGSLASLDSLRKGGPPPPNWRQPELPEVIAMLGFRLDAVKSNAAAYLQHLCYRNDKVKTDVRKLKGIPVLVGLLDHPKKEVHLGACGALKNISFGRDQDNKIAIKNCDGVPALVRLLRKARDMDLTEVITGTLWNLSSHDSIKMEIVDHALHALTDEVIIPHSGWEREPNEDCKPRHIEWESVLTNTAGCLRNVSSERSEARRKLRECDGLVDALIFIVQAEIGQKDSDSKLVENCVCLLRNLSYQVHREIPQAERYQEAAPNVANNTGPHAASCFGAKKGKDEWFSRGKKPIEDPANDTVDFPKRTSPARGYELLFQPEVVRIYISLLKESKTPAILEASAGAIQNLCAGRWTYGRYIRSALRQEKALSAIADLLTNEHERVVKAASGALRNLAVDARNKELIGKHAIPNLVKNLPGGQQNSSWNFSEDTVISILNTINEVIAENLEAAKKLRETQGIEKLVLINKSGNRSEKEVRAAALVLQTIWGYKELRKPLEKEGWKKSDFQVNLNNASRSQSSHSYDDSTLPLIDRNQKSDKKPDREEIQMSNMGSNTKSLDNNYSTPNERGDHNRTLDRSGDLGDMEPLKGTTPLMQDEGQESLEEELDVLVLDDEGGQVSYPSMQKI
# Target: HPV16 L2 minor capsid protein with a C-terminal 3xFLAG tag, in the pseudovirus WT HPV16.L2F (HPV16) (UniProt P03107)
# Test: affinity purification with mass spectrometry; HeLa cells infected with WT HPV16.L2F for 16 hrs, lysed in 1% Triton X-100 HN buffer; FLAG M2 antibody, protein G magnetic beads, elution with 3xFLAG peptide; control: uninfected extract mixed with purified PsV; data from Inoue et al., 2018
binder,measurement,value
B1,binding,binds
